About 860 (78%) of roughly 1,100 compounds were called active. So high a share suggests a set chosen from earlier hits. Inconclusive results, whose numbers are uncertain, are shown with a selection of clear calls. The call rests on the fitted dose curve; in most records, active means well fitted activation curve with a large enough effect; inconclusive means small, poorly fitted or top-dose-only effect; inactive means flat fitted curve, though single readings scatter. A potency beside an inconclusive call is a rough fit, not a confirmed value.
Assay: qHTS of Nrf2 Activators: Hit Validation in Primary Assay; further: nearly all actives have a fitted effect of over 70% in size
Settings: Nrf2/ARE reporter cell assay; Potency: activation; series mostly up to 46.1 µM
In short: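 Luminescence from Steady-Glo lysis reagent, read after 30 min, reported ARE-luciferase activity in AREc32_fluc stable cells. Compounds were tested at several concentrations, incubated 24 h at 37 °C with 5% CO2 following overnight seeding.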
For `O=C(NCc1ccco1)c1ccccc1-c1nc(-c2ccccc2)no1`, the Potency was inconclusive: 1.64 µM [activator, full curve].
In the case of `COc1ccc(Cl)cc1C(=O)O/N=C(\N)c1ccccn1`, the Potency is reported as active: 2.91 µM.
For `COc1cc2c(cc1NC(=O)c1ccco1)CCCC2`, the Potency was active: 3.26 µM.
For `COc1ccc([C@H]2Cc3cccc(O)c3C(=O)O2)cc1O`, the Potency was “inactive”.
With `O=C(NCc1ccco1)c1ccccc1-c1nc(-c2ccc(F)cc2)no1` the Potency was inconclusive: 4.61 µM [activator, partial curve].
With `Cc1n[nH]c(=S)n1/N=C/c1ccc(-c2ccccc2[N+](=O)[O-])o1` the Potency was inconclusive: 2.06 µM [activator, full curve].
In the case of `O=C(NC(=S)Nc1ccc(Br)cn1)c1cccs1`, the Potency is reported as active: 2.91 µM.
With `Cc1cc(NC(=O)C2CCCC2)nc2c1c(=O)oc1ccccc12` the Potency was active: 2.31 µM.
In the case of `O=C(COC(=O)/C=C/c1ccco1)NCc1ccccc1Cl`, the Potency is reported as inconclusive: 2.59 µM [activator, full curve].
With `Cc1ccc(NC(=O)c2ccc([N+](=O)[O-])s2)cc1S(=O)(=O)N1CCOCC1` the Potency was inconclusive: 2.91 µM [activator, partial curve].
With `Cc1ccc(/C=C/C(=O)c2ccc([N+](=O)[O-])o2)cc1` the Potency was inconclusive: 2.31 µM [activator, partial curve].
For `Cn1c(NC(=O)/C=C/c2ccccc2)cc(=O)n(C)c1=O`, the Potency was active: 20.6 µM.
With `N#C/C(=C(/O)c1ccc(Br)s1)c1nc2ccccc2[nH]1` the Potency was inconclusive: 2.31 µM [activator, full curve].
In the case of `O=C(/C=C/c1ccco1)NC(=S)Nc1nc(-c2ccc(Cl)cc2)cs1`, the Potency is reported as “inactive”.
In the case of `NS(=O)(=O)c1ccc(NC(=O)c2cc(-c3cccs3)nc3ccccc23)cc1`, the Potency is reported as “inactive”.
With `c1ccc(-c2nnc(-c3ccccc3)o2)cc1` the Potency was active: 6.51 µM.
In the case of `COc1ccccc1NC(=O)c1nc(S(=O)(=O)Cc2ccccc2)ncc1Cl`, the Potency is reported as inconclusive: 4.11 µM [activator, single point].
In the case of `O=[N+]([O-])c1cc(Cl)cc(/C=N/Nc2nc3ccccc3s2)c1O`, the Potency is reported as “inactive”.
In the case of `O=[N+]([O-])c1ccc(/C=[N+](\[O-])[C@@H]2CCCC[C@@H]2/[N+]([O-])=C/c2ccc([N+](=O)[O-])o2)o1`, the Potency is reported as inconclusive: 5.8 µM [activator, single point].
For `COc1ccc(N=Nc2ccc(O)c3ncccc23)cc1`, the Potency was inconclusive: 0.651 µM [activator, full curve].
In the case of `O=C1/C(=C/c2ccccc2)CCc2ccc(Cl)nc21`, the Potency is reported as inconclusive: 3.66 µM [activator, single point].
With `Cn1cc([N+](=O)[O-])c(C(=O)Nc2ccc(-c3nc4ccccc4o3)cc2)n1` the Potency was inconclusive: 9.2 µM [activator, single point].
For `O=C1C2C3C=CC(C4CC34)C2C(=O)N1/N=C/c1ccc([N+](=O)[O-])o1` (stereo not given), the Potency was active: 3.66 µM.
For `COc1ccc(/C(N)=N/OC(=O)c2cccc([N+](=O)[O-])c2)cc1`, the Potency was inconclusive: 2.31 µM [activator, full curve].
In the case of `COc1ccc(-c2csc3nc(-c4cccnc4)nc(Cl)c23)cc1OC`, the Potency is reported as inconclusive: 9.2 µM [activator, partial curve].
For `CCCS(=O)(=O)c1nc(S(=O)(=O)c2ccc(C)cc2)c(N2CC(C)OC(C)C2)s1` (stereo not given), the Potency was “inactive”.
For `CCOC(=O)c1ccccc1N/C=C/C(=O)c1cccs1`, the Potency was active: 2.31 µM.
With `Cc1nnc(NC(=O)c2nc(S(=O)(=O)Cc3ccccc3)ncc2Cl)s1` the Potency was inconclusive: 5.8 µM [activator, single point].
For `Cc1ncc(N=Nc2ccccc2)c(-c2ccccc2)n1`, the Potency was active: 3.66 µM.
In the case of `O=C(Nc1ccc2c(c1)C(=O)NC2=O)c1cccc(C(F)(F)F)c1`, the Potency is reported as active: 2.06 µM.
In the case of `CC(C)(C)SCCNC(=O)/C=C/c1cccc([N+](=O)[O-])c1`, the Potency is reported as “inactive”.
With `O=C(/C=C/c1ccccc1)Nc1ncn[nH]1` the Potency was active: 3.66 µM.
In the case of `CC(NC(=O)/C=C/c1ccco1)c1nc2ccccc2n1Cc1c(Cl)cccc1Cl` (stereo not given), the Potency is reported as inconclusive: 1.84 µM [activator, full curve].
With `N#C/C(=C\c1ccc([N+](=O)[O-])o1)c1nc2ccccc2[nH]1` the Potency was inconclusive: 3.66 µM [activator, single point].
With `O=c1c(Cl)c(N/N=C/c2ccc(Br)cc2)cnn1-c1ccccc1` the Potency was inconclusive: 2.91 µM [activator, partial curve].
In the case of `COc1ccccc1NC(=O)c1cc(Cl)nc2ccccc12`, the Potency is reported as active: 5.17 µM.
For `CC(/C=C(\NC(=O)c1ccccc1)C(=O)N=Nc1c(O)[nH]c2ccc(C)cc12)=C\c1ccccc1`, the Potency was inconclusive: 5.8 µM [activator, partial curve].
For `CSc1nsc(SC)c1C(=O)Nc1ccc(C)cc1`, the Potency was active: 16.4 µM.
With `O=c1oc(CCO)cc2ccc(C#Cc3ccsc3)cc12` the Potency was inconclusive: 1.46 µM [activator, full curve, poor fit].
In the case of `S=c1[nH]nc(-c2ccc(Cl)cc2)n1/N=C/C=C/c1ccco1`, the Potency is reported as inconclusive: 1.3 µM [activator, full curve].
With `O=C(Oc1cccc2c(O)cccc12)c1ccccc1Cl` the Potency was inconclusive: 10.3 µM [activator, partial curve].
With `COc1cc(/C=C2/NC(=O)N(c3cccc(Cl)c3)C2=O)ccc1O` the Potency was inconclusive: 2.91 µM [activator, full curve].
In the case of `Cc1noc(C)c1-c1ccc2ncnc(NCC3CCCCN3C)c2c1` (stereo not given), the Potency is reported as inconclusive: 20.6 µM [activator, partial curve].
With `COc1ccc(COc2ccsc2C(=O)Nc2ccc(Cl)c(Cl)c2)cc1` the Potency was inconclusive: 4.61 µM [activator, single point].
With `O=C(CSc1ccc(-c2ccco2)nn1)NCc1ccccc1` the Potency was inconclusive: 1.84 µM [activator, full curve].
For `N#Cc1c(-c2ccccc2)cc(-c2ccccc2)[nH]c1=O`, the Potency was inconclusive: 1.64 µM [activator, full curve].
For `Cc1ccc(/C=C/C(=O)OCC(=O)Nc2cccnc2Cl)o1`, the Potency was inconclusive: 1.03 µM [activator, full curve].
For `O=C(Nc1ccccc1)c1nc[nH]c1C(=O)Nc1ccccc1F`, the Potency was “inactive”.
In the case of `CNc1nc(N)c([N+](=O)[O-])c(Nc2cccc(Cl)c2)n1`, the Potency is reported as inconclusive: 3.66 µM [activator, partial curve].
For `COCCn1c(=NC(=O)c2cc(Cl)sc2Cl)sc2cc(S(N)(=O)=O)ccc21`, the Potency was inconclusive: 1.64 µM [activator, full curve].
For `Cn1c(/C=C/c2cccc(Br)c2)nc2ccccc2c1=O`, the Potency was inconclusive: 18.4 µM [activator, partial curve].
For `Cc1nn2c3c(cnc2c1-c1ccccc1)C(=O)CC(c1ccco1)C3` (stereo not given), the Potency was inconclusive: 4.61 µM [activator, partial curve].
For `CC(=O)c1cccc(NC(=O)c2cc(Cl)sc2Cl)c1`, the Potency was inconclusive: 7.31 µM [activator, partial curve].
With `CC1CN(C(=O)/C=C/c2ccc([N+](=O)[O-])s2)CC(C)O1` (stereo not given) the Potency was inconclusive: 2.91 µM [activator, partial curve].
For `O=C(CCN1C(=O)/C(=C\c2ccccc2)SC1=S)N1CCCCC1`, the Potency was inconclusive: 5.8 µM [activator, single point].
In the case of `COc1ccc(C2NC(=S)NC3=C2CCCC3=C2SCCS2)cc1` (stereo not given), the Potency is reported as inconclusive: 5.8 µM [activator, single point].
In the case of `COC(=O)c1sccc1NC(=O)c1cccc(F)c1`, the Potency is reported as active: 18.4 µM.
In the case of `O=C(CSc1ccccn1)N/N=C/c1ccccc1[N+](=O)[O-]`, the Potency is reported as inconclusive: 7.31 µM [activator, partial curve].
In the case of `Cc1cc(Br)ccc1NC(=O)CNC(=O)Cn1ncc(Cl)c(Cl)c1=O`, the Potency is reported as inconclusive: 1.16 µM [activator, full curve].
With `COc1cccc(-c2nc3n(n2)CCc2ccccc2-3)c1` the Potency was inconclusive: 1.84 µM [activator, full curve].

Reference: PubChem BioAssay AID651593 (National Center for Advancing Translational Sciences (NCATS), 2012)
Potency means the concentration at half of the fitted maximal effect.
